Test results from patent publication US20070105162A1, “Monovalent avidin and streptavidin compositions” (Massachusetts Institute of Technology, priority 2005, published 2007).
Some of these results come from one statement about several compounds together.

Assay: Off-rate assay of biotin-4-fluorescein from streptavidin
Assay type: binding
Conditions: in 12 hours at 37° C., excess competing biotin

Substance: A1D3: Monovalent streptavidin tetramer: one His6-tagged wild-type (A) subunit and three dead (D) subunits [Tetramer A1D3]
- dissociation of biotin-4-fluorescein: less than 10%
